PubChem BioAssay AID743458 – Peter MacCallum Cancer Centre, 2014
Shown is a random part of about 1,800 reagents. 732 of all reagents (41%) count as active. 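Calls are per siRNA reagent; a gene was deemed confirmed only if most of its four siRNAs scored.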 Reagents against one gene are numbered here.

- Purpose: 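Retest earlier hits with independent siRNAs per gene for restoring vorinostat sensitivity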 (follow-up of hits)
- Cells: human HCT116-VR colon cancer cells made resistant to vorinostat
- Knock-down reagent: single siRNA or pool against human genes, 25 nM per single siRNA
- Timing: about 72 h after transfection, including 24 h of drug
- Conditions: vorinostat, 2.5 µM final, for 24 h
- Measured: 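Cell viability by fluorescence and apoptosis by caspase 3/7 luminescence under vorinostat, background-corrected, averaged across two plate copies and given as fold change versus mock transfection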
- Direction: viability relative to mock: higher = more living cells than mock; caspase activity relative to mock: higher = more apoptosis than mock
- Rule for the call: 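Active means a reduced-viability or caspase-activation class, anything else inactive; classes could only be given to wells that looked healthy when left untreated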

Gene	reagent no.	viability relative to mock	caspase activity relative to mock	viability hit class	caspase hit class	Call
VPS4A	1	0.97	1.27	no change	no change	inactive
VPS4A	2	0.76	2.58	no change	caspase activation	active
VPS4A	3	0.6	2.23	no change	no change	inactive
VPS4A	4	0.28	3.48	reduced viability	caspase activation	active
C22orf15	1	0.69	2.46	no change	no change	inactive
C22orf15	2	0.73	2.32	no change	no change	inactive
C22orf15	3	0.65	3.37	no change	caspase activation	active
C22orf15	4	0.8	1.4	no change	no change	inactive
CAPN12	1	0.74	1.87	no change	no change	inactive
CAPN12	2	0.66	2.71	no change	caspase activation	active
CAPN12	3	0.88	4.95	no change	caspase activation	active
CAPN12	4	0.4	5.38	reduced viability	caspase activation	active
RNF181	1	0.98	1.58	no change	no change	inactive
RNF181	2	0.92	1.66	no change	no change	inactive
RNF181	3	0.94	1.08	no change	no change	inactive
RNF181	4	0.8	1.25	no change	no change	inactive
RNF128	1	0.94	1.76	no change	no change	inactive
RNF128	2	0.84	1.19	no change	no change	inactive
RNF128	3	1	1.07	no change	no change	inactive
RNF128	4	1	0.96	no change	no change	inactive
GPR101	1	0.83	1.64	no change	no change	inactive
GPR101	2	0.88	1.98	no change	no change	inactive
GPR101	3	0.61	1.98	no change	no change	inactive
GPR101	4	0.71	1.63	no change	no change	inactive
RASAL2	1	0.4	5.31	reduced viability	caspase activation	active
RASAL2	2	0.6	1.39	no change	no change	inactive
RASAL2	3	1.16	1.29	no change	no change	inactive
RASAL2	4	0.65	1.86	no change	no change	inactive
THOC5	1	0.74	4.02	no change	caspase activation	active
THOC5	2	0.82	4.15	no change	caspase activation	active
THOC5	3	0.9	2.92	no change	caspase activation	active
THOC5	4	0.71	2.97	no change	caspase activation	active
CASTOR3P	1	0.2	3.6	reduced viability	caspase activation	active
CASTOR3P	2	0.41	4.53	reduced viability	caspase activation	active
CASTOR3P	3	0.74	1.4	no change	no change	inactive
CASTOR3P	4	0.66	1.77	no change	no change	inactive
ZNF490	1	1	0.96	no change	no change	inactive
ZNF490	2	0.9	1.06	no change	no change	inactive
ZNF490	3	1.05	1.02	no change	no change	inactive
ZNF490	4	0.17	1.87	reduced viability	no change	active
SYT8	1	0.77	3.7	no change	caspase activation	active
SYT8	2	0.79	1.65	no change	no change	inactive
SYT8	3	0.79	2.42	no change	no change	inactive
SYT8	4	0.88	1.03	no change	no change	inactive
RCE1	1	1.05	1.03	no change	no change	inactive
RCE1	2	0.9	2.23	no change	no change	inactive
RCE1	3	0.87	0.98	no change	no change	inactive
RCE1	4	0.93	0.75	no change	no change	inactive

4 entries already listed, ordered by “caspase activity relative to mock”, low to high.
Gene	reagent no.	viability relative to mock	caspase activity relative to mock	viability hit class	caspase hit class	Call
RCE1	3	0.87	0.98	no change	no change	inactive
SYT8	4	0.88	1.03	no change	no change	inactive
RCE1	1	1.05	1.03	no change	no change	inactive
RCE1	2	0.9	2.23	no change	no change	inactive

More records follow.
Gene	reagent no.	viability relative to mock	caspase activity relative to mock	viability hit class	caspase hit class	Call
HOXA2	1	0.7	3.66	no change	caspase activation	active
HOXA2	2	0.87	2.04	no change	no change	inactive
HOXA2	3	0.95	2.1	no change	no change	inactive
HOXA2	4	0.9	1.36	no change	no change	inactive
MRPL19	1	0.9	3.12	no change	caspase activation	active
MRPL19	2	0.88	2.9	no change	caspase activation	active
MRPL19	3	0.9	3.46	no change	caspase activation	active
MRPL19	4	0.81	2.27	no change	no change	inactive
IFNW1	1	0.94	1.4	no change	no change	inactive
IFNW1	2	0.26	4.12	no change	no change	inactive
IFNW1	3	0.86	0.94	no change	no change	inactive
IFNW1	4	0.75	1.34	no change	no change	inactive
COL9A1	1	0.36	5.3	no change	no change	inactive
COL9A1	2	0.94	2.17	no change	no change	inactive
COL9A1	3	0.86	1.06	no change	no change	inactive
COL9A1	4	0.9	2.05	no change	no change	inactive
TMEM203	1	0.9	0.97	no change	no change	inactive
TMEM203	2	0.74	2.76	no change	caspase activation	active
TMEM203	3	0.96	0.92	no change	no change	inactive
TMEM203	4	0.76	2.6	no change	caspase activation	active
FN3KRP	1	0.75	1.48	no change	no change	inactive
FN3KRP	2	0.9	1.5	no change	no change	inactive
FN3KRP	3	0.94	2.34	no change	no change	inactive
FN3KRP	4	0.98	3.62	no change	caspase activation	active
SAR1B	1	0.89	0.91	no change	no change	inactive
SAR1B	2	0.5	2.3	reduced viability	no change	active
SAR1B	3	0.78	1.23	no change	no change	inactive
SAR1B	4	0.4	2.33	reduced viability	no change	active
